Assay results: US8177896B2, “Antifouling furan-2-one derivatives” (The Hong Kong University of Science and Technology, priority 2008, dated 2012)
Some of these results come from one statement about several compounds together.

How the values were obtained:
Hydroides elegans larvae = experiment: Larval settlement bioassay, Hydroides elegans competent larvae; format: in vivo; settings: H. elegans
Method: The 24-well plates were incubated at 28° C. for 24 h under a 15 h light/9 h dark photoperiod. The percentage of larval settlement and larval mortality was determined by counting the settled, live individuals under a dissecting microscope and expressing the result as a proportion of the total number of larvae in the well.

[1] = tested on: Balanus amphitrite larvae; experiment: Larval settlement bioassay, barnacle Balanus amphitrite cyprids; format: in vivo; settings: B. amphitrite
Method: The nauplii were reared in freshly filtered nature seawater (FSW, 0.45 μm, 32 S salinity) and fed with Chaetoceros gracilis Schutt at 24° C. in the Coastal Marine Laboratory the Hong Kong University of Science and Technology (HKUST). Cyprids were stored for 2 days at 8° C. (aged cyprids) prior to being used in the bioassays. Ten μl of each test sample dissolved in dimethyl sulfoxide (DMSO) were transferred into a well in 24-well polystyrene plate after the addition of 1 ml of FSW. The control wells contained 1 ml of FSW and 10 μl of DMSO. About 15 cyprids were added in each well with triplicate samples being tested.

Structure (SMILES)	inhibition of larval settlement (in words) (Hydroides elegans larvae)	inhibition of larval settlement (in words) [1]
CCC(C)(O)CCCCCC1C=CC(=O)O1 (stereo not drawn) [Compound 1]	can efficiently inhibited larval settlement	can efficiently inhibited larval settlement
CC(O)C(C)CCCCCC1C=CC(=O)O1 (stereo not drawn) [Compound 2]	can efficiently inhibited larval settlement	can efficiently inhibited larval settlement
CC(=O)C(C)CCCCCC1C=CC(=O)O1 (stereo not drawn) [Compound 3]	can efficiently inhibited larval settlement	can efficiently inhibited larval settlement
